Measurements from article PMC4863740.
Where a chain is given by its changes, count along the chain named. For at least one entry, the source does not settle the construct or the ends of the probe. For some assays here: No signal at the amounts used counts as a negative. Tags and fusion partners may be left off the protein sequences shown.

Tests used:
[1] = molecular target: T1, NANOG homeodomain N51A N146A (UniProt Q80Z64); test: EMSA; conditions: EMSA: 10 mM Hepes pH 7.9, 10% glycerol, 50 mM KCl, 10 mM NaCl, 0.4 mM EDTA, 2.5 mM DTT, 0.25% Tween 20, 100 ug/ml dI:dC, 1 mg/ml BSA, 10 nM oligonucleotide; recombinant protein; protein details: His; label: 5' IR700 on upper strand
T1 sequence (looked up, limits assumed): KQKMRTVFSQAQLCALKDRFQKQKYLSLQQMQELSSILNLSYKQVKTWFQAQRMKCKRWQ

[2] = molecular target: T2, NANOG homeodomain wild-type (UniProt Q80Z64); test: EMSA; conditions: EMSA: 10 mM Hepes pH 7.9, 10% glycerol, 50 mM KCl, 10 mM NaCl, 0.4 mM EDTA, 2.5 mM DTT, 0.25% Tween 20, 100 ug/ml dI:dC, 1 mg/ml BSA, 10 nM oligonucleotide; recombinant protein; protein details: His; label: 5' IR700 on upper strand
T2 sequence (looked up, limits assumed): T1 sequence (looked up, limits assumed) with A51N

## CTGTTAATGGGAGC (double strand) [Tcf3 promoter NANOG-binding site probe (14 bp)]
[1]
  binding result: no binding
[2]
  binding result: binds
